Measured values taken from PubChem BioAssay AID256 (DTP/NCI, 2004).
The list does not hold the whole screen: it gathers tests that were run many times, whatever their T/C, doses with no T/C, and many T/C values between a quarter and a half above the control. Further doses and runs are listed elsewhere. T/C: endpoint of the treated group in % of that of the vehicle group. Some entries give survivors of the animals treated and no T/C: the source holds a T/C of zero for them, seemingly a mark for toxic or unscored doses. Some doses without a T/C left all or most animals alive at the check, yet need not have been tolerated: survival well below the control is almost never listed, so the zero probably covers shortened survival too. Survivors were counted at the toxicity check, usually on the fifth day, unless a day is given; later deaths do not show. Schedule codes are those of the source, taken here to give the interval after Q, in days (D) or hours (H), and the number of doses after X. Some molecules as drawn cover several salts, stereoisomers or complexes of the source; a dose is that of the sample tested. Additions like (4×) stand for listed records that agree. Some entries hold several experiments; the results are listed from low to high. Where survival is the endpoint, the PubChem record calls one and a half times the control and up active, and a quarter to a half above the control has no call in these data; cut-offs in other NCI protocols can differ. Some T/C values are followed by the survivors on the day toxicity was checked, most often the fifth; without a count, all were alive then.

System: CD2F1 mice, L1210 leukemia ip, survival T/C
Test: NCI In Vivo Anticancer Drug Screen. Data for tumor model L1210 Leukemia (intraperitoneal) in CD2F1 (CDF1) mice
Settings: higher T/C = longer survival
How it was run: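 Mice carrying a transplanted tumor received test compound or vehicle alone. The value is the measurement in the treated group divided by that in the vehicle-treated control group.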

[1] = T/C endpoint: mean survival time, dose: 400.0 mg/kg/injection, schedule: Q04DX003 (ip), vehicle: saline
[2] = T/C endpoint: mean survival time, dose: 20.0 mg/kg/injection, schedule: Q01DX009 (ip), vehicle: Klucel (hydroxypropylcellulose) (HPC)
[3] = T/C endpoint: mean survival time, dose: 400.0 mg/kg/injection, schedule: Q04DX002 (ip), vehicle: saline with Tween-80
[4] = T/C endpoint: mean survival time, dose: 200.0 mg/kg/injection, schedule: Q01DX009 (ip), vehicle: saline with Tween-80
[5] = T/C endpoint: mean survival time, dose: 400.0 mg/kg/injection, schedule: Q01DX009 (ip), vehicle: saline with Tween-80
[6] = T/C endpoint: mean survival time, dose: 100.0 mg/kg/injection, schedule: Q04DX003 (ip), vehicle: saline with Tween-80
[7] = T/C endpoint: median survival time, dose: 400.0 mg/kg/injection, schedule: Q01DX009 (ip), vehicle: saline with Tween-80

## COC(=O)C[C@](O)(CCCC(C)(C)O)C(=O)O[C@@H]1C(OC)=C[C@]23CCCN2CCc2cc4c(cc2[C@H]13)OCO4
T/C endpoint: median survival time, dose: 1.0 mg/kg/injection, schedule: Q01DX009 (ip), vehicle: acid diluted with saline
  T/C: 128 % of control
T/C endpoint: median survival time, dose: 1.25 mg/kg/injection, schedule: Q01DX009 (ip), vehicle: acid diluted with saline
  T/C: 128 % of control
T/C endpoint: median survival time, dose: 1.5 mg/kg/injection, schedule: Q01DX009 (ip), vehicle: acid diluted with saline
  T/C: 132 % of control
T/C endpoint: median survival time, dose: 1.75 mg/kg/injection, schedule: Q01DX009 (ip), vehicle: acid diluted with saline
  T/C: 136 % of control
T/C endpoint: median survival time, dose: 2.0 mg/kg/injection, schedule: Q01DX009 (ip), vehicle: acid diluted with saline
  T/C: 133 % of control
T/C endpoint: median survival time, dose: 2.25 mg/kg/injection, schedule: Q01DX009 (ip), vehicle: acid diluted with saline
  T/C: 130 % of control

## O=c1[nH]cnc2c1ncn2C1OC(CO)C(O)C1O.[Ag+] (stereo not drawn)
T/C endpoint: mean survival time, dose: 100.0 mg/kg/injection, schedule: Q01DX005 (ip), vehicle: other
  survivor count: 0 of 6
T/C endpoint: mean survival time, dose: 200.0 mg/kg/injection, schedule: Q01DX005 (ip), vehicle: other
  survivor count: 0 of 6

## O=S(=O)(O)C1CCC[N-]C1.O=S(=O)(O)C1CCC[N-]C1.[Cl][Pt+2]([Cl])([Cl])[Cl] (stereo not drawn)
T/C endpoint: mean survival time, dose: 200.0 mg/kg/injection, schedule: Q01DX009 (ip), vehicle: water
  survivor count: 0 of 6

## C/C=C(\C)c1cc(=O)c2c(C)cc3c(c2o1)C(OC)(OC(C)=O)c1c(O)c(C2CC(C)(N(C)C)C(OC(C)=O)C(C)O2)cc(C2CC(N(C)C)C(OC(C)=O)C(C)O2)c1C3=O (stereo not drawn)
[1]
  survivor count: 3 of 6

## N#CC[CH2][Sn]([I])([c]1ccccc1)[c]1ccccc1
T/C endpoint: mean survival time, dose: 25.0 mg/kg/injection, schedule: Q04DX003 (ip), vehicle: saline with Tween-80
  survivor count: 0 of 3

## c1ccc2c(NCCCCCCCCNc3c4ccccc4nc4ccccc34)c3ccccc3nc2c1
T/C endpoint: mean survival time, dose: 2.5 mg/kg/injection, schedule: Q01DX009 (ip), vehicle: Klucel (hydroxypropylcellulose) (HPC)
  T/C: 130 % of control
T/C endpoint: mean survival time, dose: 10.0 mg/kg/injection, schedule: Q01DX009 (ip), vehicle: Klucel (hydroxypropylcellulose) (HPC)
  T/C: 128 % of control
[2]
  T/C: 125 % of control
  survivor count: 4 of 10
T/C endpoint: mean survival time, dose: 40.0 mg/kg/injection, schedule: Q01DX009 (ip), vehicle: Klucel (hydroxypropylcellulose) (HPC)
  survivor count: 2 of 10, 5 of 6, 6 of 6
T/C endpoint: mean survival time, dose: 80.0 mg/kg/injection, schedule: Q01DX009 (ip), vehicle: Klucel (hydroxypropylcellulose) (HPC)
  survivor count: 0 of 6

## CC(C)C(O)(c1ccccc1)C(O)(c1ccccc1)C(C)C (stereo not drawn)
[3]
  survivor count: 0 of 3

## CC(=O)Oc1ccccc1C(=O)O
T/C endpoint: mean survival time, dose: 200.0 mg/kg/injection, schedule: Q03HX024 (ip), vehicle: saline
  survivor count: 0 of 6
T/C endpoint: mean survival time, dose: 250.0 mg/kg/injection, schedule: Q01DX009 (ip), vehicle: saline with Tween-80
  survivor count: 3 of 6
T/C endpoint: mean survival time, dose: 400.0 mg/kg/injection, schedule: Q03HX024 (ip), vehicle: saline
  survivor count: 0 of 6
T/C endpoint: mean survival time, dose: 500.0 mg/kg/injection, schedule: Q01DX009 (ip), vehicle: saline with Tween-80
  survivor count: 1 of 6
T/C endpoint: mean survival time, dose: 1000.0 mg/kg/injection, schedule: Q01DX009 (ip), vehicle: saline with Tween-80
  survivor count: 0 of 6
T/C endpoint: mean survival time, dose: 2000.0 mg/kg/injection, schedule: Q01DX001 (ip), vehicle: saline with Tween-80
  survivor count: 2 of 6
T/C endpoint: mean survival time, dose: 4000.0 mg/kg/injection, schedule: Q01DX001 (ip), vehicle: saline with Tween-80
  survivor count: 0 of 6

## CCN1/C(=C/C=C/c2oc3ccc4ccccc4c3[n+]2CC)Oc2ccc3ccccc3c21
T/C endpoint: mean survival time, dose: 75.0 mg/kg/injection, schedule: Q01DX001 (ip), vehicle: other
  survivor count: 4 of 6
T/C endpoint: mean survival time, dose: 150.0 mg/kg/injection, schedule: Q01DX001 (ip), vehicle: other
  survivor count: 3 of 6
T/C endpoint: mean survival time, dose: 300.0 mg/kg/injection, schedule: Q01DX001 (ip), vehicle: other
  survivor count: 2 of 6

## O=[N+]([O-])c1ccc(Cn2cc[n+](Cc3ccc([N+](=O)[O-])cc3)c2)cc1
T/C endpoint: mean survival time, dose: 100.0 mg/kg/injection, schedule: Q01DX001 (ip), vehicle: saline with Tween-80
  survivor count: 1 of 6
T/C endpoint: mean survival time, dose: 200.0 mg/kg/injection, schedule: Q01DX001 (ip), vehicle: saline with Tween-80
  survivor count: 0 of 6
T/C endpoint: mean survival time, dose: 400.0 mg/kg/injection, schedule: Q01DX001 (ip), vehicle: saline with Tween-80
  survivor count: 0 of 6

## COc1ccc([I+]c2ccccc2)cc1
T/C endpoint: mean survival time, dose: 12.5 mg/kg/injection, schedule: Q01DX009 (ip), vehicle: saline with Tween-80
  survivor count: 1 of 6
T/C endpoint: mean survival time, dose: 25.0 mg/kg/injection, schedule: Q01DX009 (ip), vehicle: saline with Tween-80
  survivor count: 1 of 6
T/C endpoint: mean survival time, dose: 50.0 mg/kg/injection, schedule: Q01DX009 (ip), vehicle: saline with Tween-80
  survivor count: 4 of 6
T/C endpoint: mean survival time, dose: 100.0 mg/kg/injection, schedule: Q01DX009 (ip), vehicle: saline with Tween-80
  survivor count: 0 of 6
[4]
  survivor count: 0 of 6
[5]
  survivor count: 0 of 6

## CCC[CH2][Pb]([CH2]CCC)([CH2]CCC)[O]C(C)=O
T/C endpoint: mean survival time, dose: 10.0 mg/kg/injection, schedule: Q01DX001 (ip), vehicle: other
  survivor count: 0 of 6
T/C endpoint: mean survival time, dose: 20.0 mg/kg/injection, schedule: Q01DX001 (ip), vehicle: other
  survivor count: 2 of 6
T/C endpoint: mean survival time, dose: 40.0 mg/kg/injection, schedule: Q01DX001 (ip), vehicle: other
  survivor count: 1 of 6
[6]
  survivor count: 3 of 3

## NC(=O)CNC1=C(N2CC2)C(=O)C(NCC(N)=O)=C(N2CC2)C1=O
T/C endpoint: mean survival time, dose: 5.0 mg/kg/injection, schedule: Q01DX009 (ip), vehicle: saline
  T/C: 140 % of control
T/C endpoint: mean survival time, dose: 15.0 mg/kg/injection, schedule: Q01DX009 (ip), vehicle: saline
  survivor count: 6 of 6

## CN(C)N=Nc1ccc(C(=N)N)cc1
T/C endpoint: mean survival time, dose: 35.0 mg/kg/injection, schedule: Q01DX009 (ip), vehicle: acid diluted with saline
  T/C: 133 % of control
T/C endpoint: mean survival time, dose: 52.5 mg/kg/injection, schedule: Q01DX009 (ip), vehicle: acid diluted with saline
  T/C: 128 % of control

## COc1cc(OC)c(/C=C/c2cnc3ccccc3n2)c(OC)c1
[6]
  survivor count: 6 of 6
T/C endpoint: mean survival time, dose: 200.0 mg/kg/injection, schedule: Q04DX003 (ip), vehicle: saline with Tween-80
  survivor count: 6 of 6
T/C endpoint: mean survival time, dose: 400.0 mg/kg/injection, schedule: Q04DX003 (ip), vehicle: saline with Tween-80
  survivor count: 6 of 6

## Nc1ccc2ccc(NS(=O)(=O)N3CCCCC3)cc2c1
T/C endpoint: median survival time, dose: 200.0 mg/kg/injection, schedule: Q01DX009 (ip), vehicle: saline with Tween-80
  T/C: 125, 143, 145 % of control
[7]
  T/C: 142 % of control [5 of 6 alive]
  survivor count: 2 of 6

## Cc1ccc2cc(O)ccc2c1
[4]
  survivor count: 3 of 6

## CCCCOC1CC2c3ccccc3C1c1cccc[n+]12 (stereo not drawn)
T/C endpoint: mean survival time, dose: 100.0 mg/kg/injection, schedule: Q04DX003 (ip), vehicle: saline
  survivor count: 0 of 6 and 5 of 6
T/C endpoint: mean survival time, dose: 200.0 mg/kg/injection, schedule: Q04DX003 (ip), vehicle: saline
  survivor count: 0 of 6 (2×)
[1]
  survivor count: 0 of 6 (2×)

## O=C(NNC(=O)c1cccc(C(=O)NNC(=O)c2ccc(Cl)c(Cl)c2)n1)c1ccc(Cl)c(Cl)c1
T/C endpoint: median survival time, dose: 333.33 mg/kg/injection, schedule: Q01DX005 (ip), vehicle: Klucel (hydroxypropylcellulose) (HPC)
  survivor count: 2 of 6
T/C endpoint: median survival time, dose: 555.56 mg/kg/injection, schedule: Q01DX005 (ip), vehicle: Klucel (hydroxypropylcellulose) (HPC)
  survivor count: 6 of 6

## CC1[N-]CCC[N-]CCC[N-]C(C)C2CCCC1[N-]2.[Ni+2].[O-][Cl+3]([O-])([O-])O (stereo not drawn)
T/C endpoint: mean survival time, dose: 200.0 mg/kg/injection, schedule: Q04DX002 (ip), vehicle: saline with Tween-80
  survivor count: 0 of 3
[3]
  survivor count: 0 of 3

## CC1(C)Cc2ccccc2O1
[5]
  survivor count: 0 of 6

## CN(C)NC(=O)/C=C\C(=O)O
T/C endpoint: mean survival time, dose: 400.0 mg/kg/injection, schedule: Q01DX009 (ip), vehicle: saline
  survivor count: 3 of 6

## Nc1nc(Br)nc2c1ncn2C1OC(CO)C(O)C1O (stereo not drawn)
T/C endpoint: mean survival time, dose: 150.0 mg/kg/injection, schedule: Q01DX001 (ip), vehicle: saline
  survivor count: 1 of 6
T/C endpoint: mean survival time, dose: 300.0 mg/kg/injection, schedule: Q01DX001 (ip), vehicle: saline
  survivor count: 0 of 6
